According to the supplement of paper PMC10849652:
The other results are listed elsewhere or left out.

Amino acid sequences for entries named in this document (tags omitted). A change or cut given only in a name is not applied to a line headed by its entry.
UniProt Q9Y4H4: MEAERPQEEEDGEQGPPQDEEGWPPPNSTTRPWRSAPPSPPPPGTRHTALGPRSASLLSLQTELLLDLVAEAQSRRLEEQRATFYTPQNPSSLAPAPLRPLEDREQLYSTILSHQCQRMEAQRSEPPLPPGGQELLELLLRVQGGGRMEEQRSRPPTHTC
UniProt B7ZAQ6: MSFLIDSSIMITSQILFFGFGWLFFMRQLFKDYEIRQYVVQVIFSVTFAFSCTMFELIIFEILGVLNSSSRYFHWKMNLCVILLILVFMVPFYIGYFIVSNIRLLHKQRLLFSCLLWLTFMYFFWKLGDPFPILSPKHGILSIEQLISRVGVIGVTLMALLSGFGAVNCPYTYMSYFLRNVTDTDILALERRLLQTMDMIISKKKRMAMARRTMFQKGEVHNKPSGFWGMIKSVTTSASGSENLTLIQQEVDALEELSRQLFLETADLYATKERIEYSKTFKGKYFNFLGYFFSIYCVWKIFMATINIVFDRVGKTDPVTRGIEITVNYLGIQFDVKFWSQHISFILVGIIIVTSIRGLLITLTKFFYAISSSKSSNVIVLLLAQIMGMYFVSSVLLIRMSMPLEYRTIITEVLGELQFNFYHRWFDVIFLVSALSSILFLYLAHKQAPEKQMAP
UniProt P50148, whole entry, looked up: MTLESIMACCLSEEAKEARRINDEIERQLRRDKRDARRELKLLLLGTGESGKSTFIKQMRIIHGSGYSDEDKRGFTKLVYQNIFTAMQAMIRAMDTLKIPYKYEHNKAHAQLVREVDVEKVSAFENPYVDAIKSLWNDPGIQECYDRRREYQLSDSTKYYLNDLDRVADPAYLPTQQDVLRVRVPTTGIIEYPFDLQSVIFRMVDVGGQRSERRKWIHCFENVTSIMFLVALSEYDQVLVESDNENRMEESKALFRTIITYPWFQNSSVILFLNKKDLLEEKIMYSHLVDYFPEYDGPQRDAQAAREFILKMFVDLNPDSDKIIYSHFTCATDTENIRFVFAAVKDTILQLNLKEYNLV
UniProt O43292: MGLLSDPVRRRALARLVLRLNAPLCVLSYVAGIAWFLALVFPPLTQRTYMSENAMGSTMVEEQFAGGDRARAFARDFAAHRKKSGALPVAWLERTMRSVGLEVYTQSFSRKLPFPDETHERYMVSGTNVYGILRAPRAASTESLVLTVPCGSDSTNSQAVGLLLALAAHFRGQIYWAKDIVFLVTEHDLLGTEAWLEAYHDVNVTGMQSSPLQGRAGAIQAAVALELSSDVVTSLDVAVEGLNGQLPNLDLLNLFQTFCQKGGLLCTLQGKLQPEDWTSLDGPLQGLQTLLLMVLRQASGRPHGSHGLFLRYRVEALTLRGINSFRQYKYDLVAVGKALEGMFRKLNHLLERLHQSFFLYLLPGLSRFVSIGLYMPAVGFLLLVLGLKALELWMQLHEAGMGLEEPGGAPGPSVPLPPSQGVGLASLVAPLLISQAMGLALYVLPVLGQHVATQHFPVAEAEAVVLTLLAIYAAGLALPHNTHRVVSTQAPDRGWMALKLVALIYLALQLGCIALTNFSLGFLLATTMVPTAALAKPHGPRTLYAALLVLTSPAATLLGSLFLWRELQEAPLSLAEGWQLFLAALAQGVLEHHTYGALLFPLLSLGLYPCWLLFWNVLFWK
UniProt Q6ZS86: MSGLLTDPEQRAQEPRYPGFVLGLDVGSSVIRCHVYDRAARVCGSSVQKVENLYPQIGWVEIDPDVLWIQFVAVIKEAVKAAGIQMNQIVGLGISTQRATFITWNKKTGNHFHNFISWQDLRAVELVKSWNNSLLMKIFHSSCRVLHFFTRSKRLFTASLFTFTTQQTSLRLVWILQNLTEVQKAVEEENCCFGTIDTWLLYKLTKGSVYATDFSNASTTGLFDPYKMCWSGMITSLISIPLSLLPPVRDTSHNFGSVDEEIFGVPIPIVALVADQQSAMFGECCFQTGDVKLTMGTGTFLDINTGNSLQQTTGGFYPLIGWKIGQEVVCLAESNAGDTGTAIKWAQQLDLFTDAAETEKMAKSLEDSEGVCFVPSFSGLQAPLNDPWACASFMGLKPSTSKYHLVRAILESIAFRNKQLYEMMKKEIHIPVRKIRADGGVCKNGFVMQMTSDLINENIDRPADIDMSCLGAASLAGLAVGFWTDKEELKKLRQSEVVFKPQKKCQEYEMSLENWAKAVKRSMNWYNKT
UniProt O60547: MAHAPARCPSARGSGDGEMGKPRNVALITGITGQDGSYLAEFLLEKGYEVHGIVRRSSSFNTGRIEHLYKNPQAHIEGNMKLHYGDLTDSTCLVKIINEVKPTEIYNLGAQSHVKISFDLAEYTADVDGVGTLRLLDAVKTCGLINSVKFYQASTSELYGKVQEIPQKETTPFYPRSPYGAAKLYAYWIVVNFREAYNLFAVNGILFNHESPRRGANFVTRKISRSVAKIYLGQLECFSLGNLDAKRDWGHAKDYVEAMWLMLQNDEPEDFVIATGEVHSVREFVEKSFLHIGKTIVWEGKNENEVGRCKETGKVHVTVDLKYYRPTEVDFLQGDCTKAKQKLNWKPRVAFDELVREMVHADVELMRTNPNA
UniProt Q9UKD1: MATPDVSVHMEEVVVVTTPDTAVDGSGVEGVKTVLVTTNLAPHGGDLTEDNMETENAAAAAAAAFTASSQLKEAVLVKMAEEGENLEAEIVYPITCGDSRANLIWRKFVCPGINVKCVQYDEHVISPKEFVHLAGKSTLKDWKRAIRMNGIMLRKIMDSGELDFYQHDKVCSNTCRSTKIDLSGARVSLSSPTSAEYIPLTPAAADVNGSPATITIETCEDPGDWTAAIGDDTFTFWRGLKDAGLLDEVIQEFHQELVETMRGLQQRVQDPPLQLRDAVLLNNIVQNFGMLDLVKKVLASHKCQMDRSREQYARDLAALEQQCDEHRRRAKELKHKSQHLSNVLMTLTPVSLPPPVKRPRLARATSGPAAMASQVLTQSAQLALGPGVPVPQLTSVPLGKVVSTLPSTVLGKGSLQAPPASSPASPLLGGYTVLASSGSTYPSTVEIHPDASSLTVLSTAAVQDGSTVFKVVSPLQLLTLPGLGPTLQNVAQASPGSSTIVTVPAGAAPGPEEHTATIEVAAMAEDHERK
UniProt Q9UJJ9: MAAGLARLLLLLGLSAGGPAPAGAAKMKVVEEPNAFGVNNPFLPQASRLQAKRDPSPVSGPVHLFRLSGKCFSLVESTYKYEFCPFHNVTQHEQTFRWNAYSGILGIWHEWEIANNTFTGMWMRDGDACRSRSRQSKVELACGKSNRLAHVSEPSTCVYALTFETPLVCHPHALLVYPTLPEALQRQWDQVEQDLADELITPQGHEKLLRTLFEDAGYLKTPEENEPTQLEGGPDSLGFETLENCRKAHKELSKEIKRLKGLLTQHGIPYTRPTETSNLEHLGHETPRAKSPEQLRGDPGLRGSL
UniProt P28799: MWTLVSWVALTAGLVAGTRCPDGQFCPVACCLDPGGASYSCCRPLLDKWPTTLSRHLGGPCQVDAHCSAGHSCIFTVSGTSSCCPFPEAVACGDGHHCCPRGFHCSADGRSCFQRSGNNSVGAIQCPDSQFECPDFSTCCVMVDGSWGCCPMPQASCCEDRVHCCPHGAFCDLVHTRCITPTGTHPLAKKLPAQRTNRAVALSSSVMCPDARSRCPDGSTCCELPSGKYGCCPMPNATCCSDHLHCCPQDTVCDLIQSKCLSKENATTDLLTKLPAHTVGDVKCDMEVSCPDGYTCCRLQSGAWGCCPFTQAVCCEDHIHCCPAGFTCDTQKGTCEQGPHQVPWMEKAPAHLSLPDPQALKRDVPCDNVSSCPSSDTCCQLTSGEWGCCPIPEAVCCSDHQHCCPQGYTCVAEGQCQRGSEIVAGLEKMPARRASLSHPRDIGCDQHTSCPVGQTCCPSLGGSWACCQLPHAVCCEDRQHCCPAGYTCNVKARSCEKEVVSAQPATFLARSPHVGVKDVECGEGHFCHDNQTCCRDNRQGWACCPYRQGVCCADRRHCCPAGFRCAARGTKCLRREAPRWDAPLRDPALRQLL
UniProt Q8TD30: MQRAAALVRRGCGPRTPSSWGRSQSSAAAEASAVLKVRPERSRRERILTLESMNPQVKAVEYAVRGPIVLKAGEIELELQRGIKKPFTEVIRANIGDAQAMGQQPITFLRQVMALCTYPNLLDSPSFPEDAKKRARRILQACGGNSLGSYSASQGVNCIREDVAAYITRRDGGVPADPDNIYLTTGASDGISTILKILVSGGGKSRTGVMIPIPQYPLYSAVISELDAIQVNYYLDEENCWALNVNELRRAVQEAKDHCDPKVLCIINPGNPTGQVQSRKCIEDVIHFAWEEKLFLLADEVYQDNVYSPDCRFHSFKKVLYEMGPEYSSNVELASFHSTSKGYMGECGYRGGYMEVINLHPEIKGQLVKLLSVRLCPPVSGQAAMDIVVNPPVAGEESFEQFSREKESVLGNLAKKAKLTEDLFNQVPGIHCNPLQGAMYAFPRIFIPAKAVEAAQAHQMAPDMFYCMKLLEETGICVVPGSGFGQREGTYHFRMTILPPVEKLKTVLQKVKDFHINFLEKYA
UniProt Q9BRR8: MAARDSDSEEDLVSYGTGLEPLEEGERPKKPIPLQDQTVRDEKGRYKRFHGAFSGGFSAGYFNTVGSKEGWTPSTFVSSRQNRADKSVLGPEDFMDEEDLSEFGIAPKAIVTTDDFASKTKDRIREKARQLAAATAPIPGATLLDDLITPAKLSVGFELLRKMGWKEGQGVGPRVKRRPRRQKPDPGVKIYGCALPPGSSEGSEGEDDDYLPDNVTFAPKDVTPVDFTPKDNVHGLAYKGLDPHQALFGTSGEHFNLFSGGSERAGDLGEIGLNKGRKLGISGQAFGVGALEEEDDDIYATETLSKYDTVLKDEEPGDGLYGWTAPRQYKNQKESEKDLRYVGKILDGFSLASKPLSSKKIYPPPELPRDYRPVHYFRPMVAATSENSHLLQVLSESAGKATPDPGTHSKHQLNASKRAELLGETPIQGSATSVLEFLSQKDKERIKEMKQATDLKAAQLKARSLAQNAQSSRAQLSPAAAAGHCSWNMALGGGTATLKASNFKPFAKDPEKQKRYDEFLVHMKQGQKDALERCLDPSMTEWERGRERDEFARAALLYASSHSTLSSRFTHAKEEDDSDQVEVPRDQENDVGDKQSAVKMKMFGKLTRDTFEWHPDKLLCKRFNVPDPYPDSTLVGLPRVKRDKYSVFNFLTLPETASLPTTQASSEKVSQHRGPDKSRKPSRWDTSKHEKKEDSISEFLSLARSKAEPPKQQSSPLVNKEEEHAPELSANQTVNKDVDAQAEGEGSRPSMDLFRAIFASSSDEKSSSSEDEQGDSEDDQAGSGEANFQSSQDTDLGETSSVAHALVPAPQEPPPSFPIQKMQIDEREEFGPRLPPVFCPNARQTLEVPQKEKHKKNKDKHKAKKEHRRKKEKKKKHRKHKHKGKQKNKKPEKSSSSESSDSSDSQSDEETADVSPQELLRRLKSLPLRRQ
UniProt Q8WWB7: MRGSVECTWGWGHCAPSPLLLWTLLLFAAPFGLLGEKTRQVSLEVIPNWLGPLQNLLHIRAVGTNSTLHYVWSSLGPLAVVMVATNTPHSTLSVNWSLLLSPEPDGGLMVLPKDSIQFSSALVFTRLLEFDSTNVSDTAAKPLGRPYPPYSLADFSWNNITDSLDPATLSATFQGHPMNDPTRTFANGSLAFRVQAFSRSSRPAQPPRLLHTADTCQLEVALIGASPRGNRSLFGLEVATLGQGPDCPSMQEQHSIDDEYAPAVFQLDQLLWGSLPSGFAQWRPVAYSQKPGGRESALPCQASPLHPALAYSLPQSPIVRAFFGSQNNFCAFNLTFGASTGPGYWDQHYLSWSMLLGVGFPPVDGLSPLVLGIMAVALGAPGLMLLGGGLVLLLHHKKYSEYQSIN
UniProt P49448: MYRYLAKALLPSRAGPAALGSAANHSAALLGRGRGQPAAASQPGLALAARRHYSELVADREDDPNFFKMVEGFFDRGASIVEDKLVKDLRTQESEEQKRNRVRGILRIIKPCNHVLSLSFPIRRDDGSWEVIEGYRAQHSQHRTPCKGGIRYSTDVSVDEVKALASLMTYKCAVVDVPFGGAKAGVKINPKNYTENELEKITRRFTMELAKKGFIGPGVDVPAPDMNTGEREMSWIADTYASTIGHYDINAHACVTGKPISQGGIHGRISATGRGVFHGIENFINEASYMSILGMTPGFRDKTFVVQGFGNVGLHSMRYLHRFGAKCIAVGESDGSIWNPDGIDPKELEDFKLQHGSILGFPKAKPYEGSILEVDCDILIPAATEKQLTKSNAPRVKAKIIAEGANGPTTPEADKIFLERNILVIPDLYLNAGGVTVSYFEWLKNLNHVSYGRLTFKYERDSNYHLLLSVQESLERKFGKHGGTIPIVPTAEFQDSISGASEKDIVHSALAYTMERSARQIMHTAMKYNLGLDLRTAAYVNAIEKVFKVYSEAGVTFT

The targets below were run with CC1=C(SC2=C1C(=N[C@H](C3=NN=C(N32)C)CC(=O)N)C4=CC=C(C=C4)Cl)C (assay: log2 fold change, soluble protein after heating vs DMSO (PISA); higher = thermal stabilisation; K562 cells, 10 uM, 30 min; active = over 0.2 and 3.5 SD of the protein, either way, in both replicates (recomputed)).
How it was run: (§1)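 K562 cells (2×10^6 cells/mL) were treated with 10 μM compound for 30 min, and aliquots were heated for 3 min over 48°C-58°C. Pooled aliquots were extracted in PBS with 0.5% NP-40 at 4°C, and the supernatant after 21,000xg for 90 min was measured by TMTpro 16plex LC-MS/MS with channel sums equalised. Reported thermal stability, relative to control samples and from duplicates, is a log2 fold change.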
For GLS2 (UniProt Q9UI32), the log2 fold change was inactive: 0.088.
With GPSM3 (UniProt Q9Y4H4) the log2 fold change was inactive: 0.198.
GPAA1 (UniProt E9PLG8) was tested, and the log2 fold change was inactive: 0.228.
For GIGYF1 (UniProt O75420), the log2 fold change was inactive: -0.028.
For GIT2 (UniProt Q14161), the log2 fold change was inactive: 0.032.
For GPR89A (UniProt B7ZAQ6), the log2 fold change was inactive: 0.086.
For GIT1 isoform 3 (UniProt Q9Y2X7), the log2 fold change was inactive: -0.306.
In the case of GMIP (UniProt Q9P107), the log2 fold change is reported as inactive: 0.003.
In the case of GLCE (UniProt O94923), the log2 fold change is reported as inactive: -0.031.
In the case of GREB1 (UniProt Q4ZG55), the log2 fold change is reported as inactive: 0.095.
In the case of GNAQ (UniProt P50148), the log2 fold change is reported as inactive: 0.035.
In the case of GPAA1 (UniProt O43292), the log2 fold change is reported as inactive: 0.005.
In the case of GPCPD1 (UniProt Q9NPB8), the log2 fold change is reported as inactive: 0.042.
GPS1 (UniProt A8K070) was tested, and the log2 fold change was inactive: -0.144.
With GOSR1 (UniProt E9PCW1) the log2 fold change was inactive: -0.063.
For GK5 (UniProt Q6ZS86), the log2 fold change was inactive: 0.018.
GLE1 (UniProt Q53GS7) was tested, and the log2 fold change was inactive: -0.326.
For GMDS (UniProt O60547), the log2 fold change was inactive: 0.077.
For GP6 isoform 3 (UniProt Q9HCN6), the log2 fold change was inactive: -0.07.
For GMEB2 (UniProt Q9UKD1), the log2 fold change was inactive: 0.073.
For GNPTG (UniProt Q9UJJ9), the log2 fold change was inactive: -0.055.
In the case of GRN (UniProt P28799), the log2 fold change is reported as inactive: 0.021.
In the case of GPT2 (UniProt Q8TD30), the log2 fold change is reported as inactive: 0.266.
GORASP1 (UniProt Q9BQQ3) was tested, and the log2 fold change was inactive: -0.01.
In the case of GPATCH1 (UniProt Q9BRR8), the log2 fold change is reported as inactive: 0.051.
In the case of GSE1 (UniProt Q14687), the log2 fold change is reported as inactive: 0.029.
GLMP (UniProt Q8WWB7) was tested, and the log2 fold change was inactive: -0.043.
For GON4L (UniProt Q3T8J9), the log2 fold change was inactive: 0.074.
For GLUD2 (UniProt P49448), the log2 fold change was inactive: 0.061.

What follows are targets tested with CC1=C2C(=CC=C1)N=C(N(C2=O)C3=CC=CC=C3C)CN4C=NC5=C(N=CN=C54)N in the same assay as above.
How it was run: as §1
In the case of GORAB (UniProt Q5T7V8), the log2 fold change is reported as inactive: -0.017.
For GPSM3 (UniProt Q9Y4H4), the log2 fold change was inactive: -0.095.
In the case of GPR89A (UniProt B7ZAQ6), the log2 fold change is reported as inactive: 0.028.
For GPS2 (UniProt Q13227), the log2 fold change was inactive: 0.
In the case of GOLGA6B (UniProt A6NDN3), the log2 fold change is reported as inactive: 0.19.
With GREB1 (UniProt Q4ZG55) the log2 fold change was inactive: 0.175.
In the case of GOLGA1 (UniProt Q92805), the log2 fold change is reported as inactive: -0.239.
With GNAQ (UniProt P50148) the log2 fold change was inactive: 0.156.
GPAA1 (UniProt O43292) was tested, and the log2 fold change was inactive: 0.01.
GRK6 isoform 2 (UniProt P43250) was tested, and the log2 fold change was inactive: 0.051.
In the case of GK5 (UniProt Q6ZS86), the log2 fold change is reported as inactive: 0.106.
For GMDS (UniProt O60547), the log2 fold change was inactive: 0.028.
GMEB2 (UniProt Q9UKD1) was tested, and the log2 fold change was inactive: 0.068.
For GRN (UniProt P28799), the log2 fold change was inactive: -0.019.
GPT2 (UniProt Q8TD30) was tested, and the log2 fold change was inactive: 0.072.
GPATCH1 (UniProt Q9BRR8) was tested, and the log2 fold change was inactive: 0.148.
In the case of GSE1 (UniProt Q14687), the log2 fold change is reported as inactive: 0.008.
In the case of GOLPH3L (UniProt Q9H4A5), the log2 fold change is reported as inactive: -0.195.
GLMP (UniProt Q8WWB7) was tested, and the log2 fold change was inactive: 0.008.
GLUD2 (UniProt P49448) was tested, and the log2 fold change was inactive: -0.029.

These targets were tested with Cc1sc2c(c1C)C(c1ccc(Cl)cc1)=N[C@@H](CC(=O)OC(C)(C)C)c1nnc(C)n1-2 in the same assay as above.
How it was run: as §1
With GORAB (UniProt Q5T7V8) the log2 fold change was inactive: -0.036.
GPAA1 (UniProt E9PLG8) was tested, and the log2 fold change was inactive: -0.08.
With GPR89A (UniProt B7ZAQ6) the log2 fold change was inactive: -0.066.
GPAM (UniProt Q9HCL2) was tested, and the log2 fold change was inactive: -0.18.
In the case of GMIP (UniProt Q9P107), the log2 fold change is reported as inactive: -0.076.
For GPS2 (UniProt Q13227), the log2 fold change was inactive: 0.039.
With GPATCH2L (UniProt Q9NWQ4) the log2 fold change was inactive: 0.278.
In the case of GREB1 (UniProt Q4ZG55), the log2 fold change is reported as inactive: 0.037.
With GNAQ (UniProt P50148) the log2 fold change was inactive: -0.01.
For GPAA1 (UniProt O43292), the log2 fold change was inactive: -0.03.
In the case of GK5 (UniProt Q6ZS86), the log2 fold change is reported as inactive: 0.135.
In the case of GMDS (UniProt O60547), the log2 fold change is reported as inactive: -0.017.
For GMEB2 (UniProt Q9UKD1), the log2 fold change was inactive: -0.007.
In the case of GNPTG (UniProt Q9UJJ9), the log2 fold change is reported as inactive: -0.036.
With GRN (UniProt P28799) the log2 fold change was inactive: -0.008.
For GPT2 (UniProt Q8TD30), the log2 fold change was inactive: 0.028.
GPATCH1 (UniProt Q9BRR8) was tested, and the log2 fold change was inactive: 0.374.
GNL2 (UniProt Q13823) was tested, and the log2 fold change was inactive: 0.05.
In the case of GLMP (UniProt Q8WWB7), the log2 fold change is reported as inactive: -0.002.
With GON4L (UniProt Q3T8J9) the log2 fold change was inactive: -0.026.
GLUD2 (UniProt P49448) was tested, and the log2 fold change was inactive: 0.047.

Each target was assayed with c1ccc([C@@H]2C[C@H]2NC2CCNCC2)cc1 in the same assay as above.
How it was run: as §1
GLS2 (UniProt Q9UI32) was tested, and the log2 fold change was inactive: 0.035.
With GPSM3 (UniProt Q9Y4H4) the log2 fold change was inactive: -0.019.
In the case of GPAA1 (UniProt E9PLG8), the log2 fold change is reported as inactive: -0.091.
For GIGYF1 (UniProt O75420), the log2 fold change was inactive: 0.012.
For GIT2 (UniProt Q14161), the log2 fold change was inactive: -0.047.
In the case of GPR89A (UniProt B7ZAQ6), the log2 fold change is reported as inactive: 0.053.
For GIT1 isoform 3 (UniProt Q9Y2X7), the log2 fold change was inactive: -0.041.
For GMIP (UniProt Q9P107), the log2 fold change was inactive: -0.17.
GLCE (UniProt O94923) was tested, and the log2 fold change was inactive: -0.002.
In the case of GREB1 (UniProt Q4ZG55), the log2 fold change is reported as inactive: -0.1.
GNAQ (UniProt P50148) was tested, and the log2 fold change was inactive: 0.024.
With GPAA1 (UniProt O43292) the log2 fold change was inactive: -0.05.
With GPCPD1 (UniProt Q9NPB8) the log2 fold change was inactive: 0.042.
GPS1 (UniProt A8K070) was tested, and the log2 fold change was inactive: -0.039.
With GOSR1 (UniProt E9PCW1) the log2 fold change was inactive: -0.003.
GK5 (UniProt Q6ZS86) was tested, and the log2 fold change was inactive: 0.084.
For GLE1 (UniProt Q53GS7), the log2 fold change was inactive: 0.019.
GMDS (UniProt O60547) was tested, and the log2 fold change was inactive: -0.009.
GP6 isoform 3 (UniProt Q9HCN6) was tested, and the log2 fold change was inactive: 0.02.
In the case of GMEB2 (UniProt Q9UKD1), the log2 fold change is reported as inactive: -0.016.
For GNPTG (UniProt Q9UJJ9), the log2 fold change was inactive: -0.068.
With GRN (UniProt P28799) the log2 fold change was inactive: 0.078.
In the case of GPT2 (UniProt Q8TD30), the log2 fold change is reported as inactive: -0.087.
For GORASP1 (UniProt Q9BQQ3), the log2 fold change was inactive: 0.103.
In the case of GPATCH1 (UniProt Q9BRR8), the log2 fold change is reported as inactive: 0.068.
For GSE1 (UniProt Q14687), the log2 fold change was active: 1.45.
With GLMP (UniProt Q8WWB7) the log2 fold change was inactive: -0.112.
For GON4L (UniProt Q3T8J9), the log2 fold change was inactive: 0.057.
For GLUD2 (UniProt P49448), the log2 fold change was inactive: -0.005.
